Inconclusive results, whose numbers are uncertain, are shown with a selection of clear calls. Potencies beside an inconclusive call are fits to weak or partial responses and may not hold up. Activity calls are given as the source filed them. Calls follow the shape of the dose curve; as a rule, active = well fitted inhibition curve with a large enough effect; inconclusive = small, poorly fitted or top-dose-only effect; inactive = flat fitted curve, though single readings scatter.
biological target: Bifunctional 3'-5' exonuclease/ATP-dependent helicase WRN (Homo sapiens) (UniProt Q14191); assay: qHTS for Inhibitors of WRN Helicase: Confirmatory Assay for Cherry-picked Compounds. (AID 720497); conditions: WRN helicase DNA unwinding, fluorescence kinetic; series mostly up to 57.1 µM; activity, negative = inhibition: at the top concentration; also: nearly all actives have a fitted effect of over 65% in size
From the text: Inhibition of DNA repair is proposed as a strategy for combating cancer. Synthetic lethality is an approach that exploits preexisting DNA repair deficiencies in certain tumors to develop inhibitors of DNA repair pathways that compensate for the tumor-associated DNA repair deficiency. Because helicases play critical roles in the DNA damage response and in DNA repair, particularly in actively dividing and replicating cells, characterization of synthetic lethal relationships of DNA helicases may be of value in developing improved anticancer treatment strategies; moreover, small molecules that specifically target a given DNA helicase may be useful for understanding its role in cellular nucleic acid metabolism. The goal of this project is to identify small molecule, non-covalent chemical inhibitors of the Werner syndrome (WS) helicase (WRN), which plays an important role in cell proliferation, the replication stress response, and DNA repair. […] The WRN gene product that is defective in the chromosomal instability disorder has DNA helicase and exonuclease activities and interacts with a number of nuclear proteins to maintain genomic stability. A 1536-well format, fluorescence based, high-throughput screen (AID 651768) has been developed in collaboration with the Brosh Laboratory at the National Institute of Aging (NIA) to screen for inhibitors of the WRN. This is a confirmatory screen to confirm the activity of the selected compounds from the WRN helicase primary assay. Inhibition is the desired outcome for this assay. NIH Chemical Genomics Center [NCGC] NIH Molecular Libraries Probe Centers Network [MLPCN] MLPCN Grant: MH096530 Assay Submitter (PI): Robert Brosh, National Institute of Aging
Three microliter of reagents (buffer in columns 3 and 4 as negative controls; WRN at 20 nM final concentration in columns 1 and 2 as positive controls; columns 5-48 as test reactions) were dispensed into a 1536-well Greiner black plate via a solenoid-valve based nanoliter dispenser. Compounds (23 nL each in columns 5-48) and control (23 nL each in column 2 as dose-response) were transferred to the assay plate via a Kalypsys pintool equipped with a 1536-pin array. Plates were incubated for 15 min at room temperature, followed by a 1 uL addition of substrate (100 nM forked duplex oligonucleotide and 2 mM ATP final concentrations) to start reaction. The plates were transferred into a ViewLux CCD imager where the reaction was measured in a kinetic mode using the standard red fluorescence optics (excitation filter 525 nm, emission filter 598 nm). Maximum inhibition response was normalized to the positive control signal while no inhibition response was normalized to the buffer only wells.
Potency is read from the fitted curve at half-maximal effect.

By UniProt entry, the sequences of proteins in these tests, tags left out.
UniProt Q14191, whole entry, looked up: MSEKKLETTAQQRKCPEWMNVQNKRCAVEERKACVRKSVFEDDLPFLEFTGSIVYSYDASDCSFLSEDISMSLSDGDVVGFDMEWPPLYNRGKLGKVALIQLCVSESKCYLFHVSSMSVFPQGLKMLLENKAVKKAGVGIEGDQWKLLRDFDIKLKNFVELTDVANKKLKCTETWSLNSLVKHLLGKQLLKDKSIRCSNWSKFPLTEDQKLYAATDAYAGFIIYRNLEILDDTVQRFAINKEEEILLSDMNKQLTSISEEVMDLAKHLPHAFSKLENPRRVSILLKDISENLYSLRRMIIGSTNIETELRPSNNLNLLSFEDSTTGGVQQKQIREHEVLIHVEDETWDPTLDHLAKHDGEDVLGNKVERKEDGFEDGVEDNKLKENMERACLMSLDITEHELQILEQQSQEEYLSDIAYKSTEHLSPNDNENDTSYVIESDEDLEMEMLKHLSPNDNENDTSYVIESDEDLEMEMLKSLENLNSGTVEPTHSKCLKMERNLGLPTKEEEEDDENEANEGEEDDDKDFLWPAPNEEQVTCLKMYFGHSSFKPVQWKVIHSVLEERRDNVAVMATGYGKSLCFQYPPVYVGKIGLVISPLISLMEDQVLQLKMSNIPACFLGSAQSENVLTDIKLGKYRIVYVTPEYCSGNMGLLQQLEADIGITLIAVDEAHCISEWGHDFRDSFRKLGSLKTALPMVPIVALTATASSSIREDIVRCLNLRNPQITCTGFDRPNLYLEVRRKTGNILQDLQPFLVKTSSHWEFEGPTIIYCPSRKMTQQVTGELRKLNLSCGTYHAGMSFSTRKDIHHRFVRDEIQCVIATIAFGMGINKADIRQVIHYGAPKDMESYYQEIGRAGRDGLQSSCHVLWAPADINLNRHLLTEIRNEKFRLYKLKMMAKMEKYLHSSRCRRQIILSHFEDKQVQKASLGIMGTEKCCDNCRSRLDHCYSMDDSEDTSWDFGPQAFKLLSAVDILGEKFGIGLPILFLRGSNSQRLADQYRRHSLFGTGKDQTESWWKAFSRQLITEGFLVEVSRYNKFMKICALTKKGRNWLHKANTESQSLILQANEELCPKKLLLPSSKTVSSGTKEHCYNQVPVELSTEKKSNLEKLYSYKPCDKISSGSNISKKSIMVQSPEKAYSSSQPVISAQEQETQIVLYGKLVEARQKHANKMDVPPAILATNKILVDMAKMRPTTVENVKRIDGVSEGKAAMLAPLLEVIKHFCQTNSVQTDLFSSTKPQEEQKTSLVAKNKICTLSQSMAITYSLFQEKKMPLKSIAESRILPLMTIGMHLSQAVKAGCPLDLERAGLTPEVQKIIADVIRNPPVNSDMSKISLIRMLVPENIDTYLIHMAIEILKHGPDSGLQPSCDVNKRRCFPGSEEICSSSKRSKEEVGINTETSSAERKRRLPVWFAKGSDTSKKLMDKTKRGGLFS

Q: Which Potency does the source give for `Cc1ccc(OCCOc2cccc(C=C3C(=O)NC(=O)NC3=O)c2)c(C)c1` here?
A: inconclusive: 24.1 µM [inhibitor, single point]

Q: `O=C(O)Cn1cc(/C=C2\C(=O)NC(=O)N(c3ccc(Br)cc3)C2=O)c2ccccc21` was tested. Which “activity, negative = inhibition” value did it give?
A: inactive: -27.3%

Q: `N#Cc1c(-c2csc(-c3no[n+]([O-])c3C#N)c2)no[n+]1[O-]` was tested. Which Potency did it give?
A: inconclusive: 24.1 µM [inhibitor, partial curve]

Q: How did the Potency turn out when `Cc1cc(/C=C2\C(=O)NC(=O)N(c3ccccc3F)C2=O)c(C)n1-c1cc(C(=O)O)cc(C(=O)O)c1` was run?
A: inconclusive: 21.5 µM [inhibitor, partial curve]

Q: With `O=C1NC(=O)N(c2ccccc2)C(=O)/C1=C\c1ccc([N+](=O)[O-])s1` as the molecule, how does the Potency read?
A: inconclusive: 24.1 µM [inhibitor, partial curve]

Q: With `CCN(CC)c1ccc(/C=C2\C(=O)NC(=O)N(Cc3ccco3)C2=O)cc1` as the molecule, how does the Potency read?
A: inconclusive: 24.1 µM [inhibitor, partial curve]

Q: How did the “activity, negative = inhibition” value turn out when `CCOc1cc(C=C2C(=O)NC(=O)NC2=O)ccc1OCC(=O)N1CCOCC1` was run?
A: inactive: -4.24%

Q: `O=C1NC(=O)C(=Cc2ccccc2OCCOc2ccc([N+](=O)[O-])cc2)C(=O)N1` was tested. Which Potency did it give?
A: inconclusive: 30.4 µM [inhibitor, single point]

Q: `O=C(O)COc1ccccc1/C=C1\C(=O)NC(=O)N(CCC2=CCCCC2)C1=O` was tested. Which “activity, negative = inhibition” value did it give?
A: inactive: -21.9%

Q: How did the Potency turn out when `COc1cccc(OC)c1-c1nn2c(-c3n[nH]c4c3CCC4)nnc2s1` was run?
A: inconclusive: 19.2 µM [inhibitor, partial curve]

Q: `Cc1ccc2c(c1)=C/C(=C\c1c(O)[nH]c(=O)[nH]c1=O)C(=O)N=2` was tested. Which “activity, negative = inhibition” value did it give?
A: inactive: 3.4%

Q: `CCC(C)N1C(=O)/C(=C\c2cnc(N(C)C)nc2)C(=O)NC1=S` (stereo unspecified) was tested. Which “activity, negative = inhibition” value did it give?
A: inactive: -5.52%

Q: With `CN1C(=O)/C(=C\c2ccc(Br)s2)C(=O)NC1=S` as the molecule, how does the Potency read?
A: inconclusive: 19.2 µM [inhibitor, partial curve]

Q: `COc1cc(OC)c(OC)cc1/C=C1/C(=O)NC(=O)N(Cc2ccccc2)C1=O` was tested. Which Potency did it give?
A: inconclusive: 10.8 µM [inhibitor, partial curve]

Q: Which “activity, negative = inhibition” value does the source give for `O=C(O)CCn1cc(C=C2C(=O)NC(=S)NC2=O)c(-c2cccc(Br)c2)n1` here?
A: inactive: -20.5%

Q: How did the “activity, negative = inhibition” value turn out when `C=CCc1cc(C=C2C(=O)N(C)C(=O)N(C)C2=O)cc(OCC)c1OCc1ccccc1` was run?
A: inactive: -18.1%

Source: PubChem BioAssay (NCATS)
